Reference: article PMC10993572
No constants are given. Whether binding was seen depends on the method and setting. Binding seen in cells or lysates may run through a third protein. A yes stands for co-enrichment or nearness to the bait. Other partners may have been found.

Sequences of proteins named here, by UniProt entry; tags and fusion partners are left off. Residues count along the entry.
UniProt P05121, residues 24-402: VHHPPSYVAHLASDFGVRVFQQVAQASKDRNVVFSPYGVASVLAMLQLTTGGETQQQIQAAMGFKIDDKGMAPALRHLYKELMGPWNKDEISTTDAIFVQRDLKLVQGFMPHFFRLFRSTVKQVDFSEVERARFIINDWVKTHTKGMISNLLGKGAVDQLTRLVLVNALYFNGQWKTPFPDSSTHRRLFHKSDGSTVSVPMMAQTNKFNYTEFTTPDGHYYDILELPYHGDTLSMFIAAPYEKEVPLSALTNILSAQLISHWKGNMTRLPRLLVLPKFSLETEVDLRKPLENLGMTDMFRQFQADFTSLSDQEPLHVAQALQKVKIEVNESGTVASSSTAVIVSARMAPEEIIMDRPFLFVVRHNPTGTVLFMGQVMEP
UniProt Q04206: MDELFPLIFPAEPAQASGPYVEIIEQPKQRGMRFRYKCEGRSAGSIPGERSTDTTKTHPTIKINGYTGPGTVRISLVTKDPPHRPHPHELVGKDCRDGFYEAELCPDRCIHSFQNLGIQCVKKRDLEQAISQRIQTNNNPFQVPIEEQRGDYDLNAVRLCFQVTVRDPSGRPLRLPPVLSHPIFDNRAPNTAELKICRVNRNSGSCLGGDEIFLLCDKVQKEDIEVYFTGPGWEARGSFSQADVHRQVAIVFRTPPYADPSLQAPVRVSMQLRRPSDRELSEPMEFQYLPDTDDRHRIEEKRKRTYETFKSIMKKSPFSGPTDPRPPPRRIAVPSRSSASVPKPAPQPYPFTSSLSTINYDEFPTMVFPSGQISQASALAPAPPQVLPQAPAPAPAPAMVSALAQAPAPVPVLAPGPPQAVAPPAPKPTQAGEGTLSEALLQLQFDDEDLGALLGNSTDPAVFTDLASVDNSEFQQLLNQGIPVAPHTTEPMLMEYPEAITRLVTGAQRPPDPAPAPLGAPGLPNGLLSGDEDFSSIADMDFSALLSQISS

Target: GFP-SERPINE1 (serpin family E member 1 tagged with GFP) (UniProt P05121)
Experiment: affinity purification with mass spectrometry; GFP-SERPINE1 or GFP-Mock plasmids transfected into 293T cells; whole cell lysates immunoprecipitated with anti-GFP antibody, Protein A/G magnetic beads, washed with PBST (0.5% Triton X-100); complexes analysed by LC-MS/MS

binding: binds
Substance: NF-κB p65, endogenous in 293T cells (from UniProt Q04206 1-551)
